Results are given in words; binding and its absence hold for the method and conditions named. Some results given as binding are weak or reduced against the parent protein; the word gives no strength.
How the values were obtained:
[1] = biological target: T1, full length human CD166 protein (recombinant) (human) (UniProt Q13740); experiment: ELISA, ILT3Fc coated at 2-16 ug/mL, full length CD166 in solution, anti-CD166 detection
T1 sequence (looked up): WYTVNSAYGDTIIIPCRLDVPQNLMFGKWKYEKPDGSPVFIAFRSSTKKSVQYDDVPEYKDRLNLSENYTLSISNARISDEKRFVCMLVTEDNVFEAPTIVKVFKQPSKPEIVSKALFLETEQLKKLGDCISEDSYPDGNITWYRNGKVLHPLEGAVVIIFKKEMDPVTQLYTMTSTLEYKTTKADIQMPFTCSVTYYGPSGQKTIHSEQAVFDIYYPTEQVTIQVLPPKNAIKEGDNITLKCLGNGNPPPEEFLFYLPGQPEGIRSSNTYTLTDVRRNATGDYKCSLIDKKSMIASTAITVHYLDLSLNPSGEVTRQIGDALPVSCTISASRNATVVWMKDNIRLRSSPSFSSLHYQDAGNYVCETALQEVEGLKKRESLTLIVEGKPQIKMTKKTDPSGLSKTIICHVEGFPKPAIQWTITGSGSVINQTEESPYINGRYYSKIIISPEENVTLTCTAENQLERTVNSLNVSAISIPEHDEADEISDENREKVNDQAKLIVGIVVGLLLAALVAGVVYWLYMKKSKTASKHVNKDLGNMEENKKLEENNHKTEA

By UniProt entry, the sequences of proteins in these tests, tags left out. Where a name states a change or a piece, a line headed by the entry shows the natural chain unless it says otherwise.
UniProt Q8NHJ6: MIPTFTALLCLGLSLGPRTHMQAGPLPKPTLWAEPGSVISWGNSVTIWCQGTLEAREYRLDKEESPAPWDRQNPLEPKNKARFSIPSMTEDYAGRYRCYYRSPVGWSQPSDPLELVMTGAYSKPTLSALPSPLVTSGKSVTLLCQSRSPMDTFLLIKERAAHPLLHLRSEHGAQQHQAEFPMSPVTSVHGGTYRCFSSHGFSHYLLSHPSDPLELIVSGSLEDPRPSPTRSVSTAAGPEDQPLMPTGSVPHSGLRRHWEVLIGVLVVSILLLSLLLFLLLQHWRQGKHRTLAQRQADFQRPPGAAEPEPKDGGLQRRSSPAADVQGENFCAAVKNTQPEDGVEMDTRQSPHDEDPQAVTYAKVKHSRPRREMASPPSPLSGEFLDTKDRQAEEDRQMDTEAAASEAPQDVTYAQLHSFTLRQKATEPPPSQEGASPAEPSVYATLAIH

human CD166Fc (human) = biological target: T2, human CD166Fc (human) (UniProt Q13740); experiment: ELISA, ILT3Fc coated at 2-16 ug/mL, CD166Fc in solution, anti-CD166 detection
T2 sequence (looked up): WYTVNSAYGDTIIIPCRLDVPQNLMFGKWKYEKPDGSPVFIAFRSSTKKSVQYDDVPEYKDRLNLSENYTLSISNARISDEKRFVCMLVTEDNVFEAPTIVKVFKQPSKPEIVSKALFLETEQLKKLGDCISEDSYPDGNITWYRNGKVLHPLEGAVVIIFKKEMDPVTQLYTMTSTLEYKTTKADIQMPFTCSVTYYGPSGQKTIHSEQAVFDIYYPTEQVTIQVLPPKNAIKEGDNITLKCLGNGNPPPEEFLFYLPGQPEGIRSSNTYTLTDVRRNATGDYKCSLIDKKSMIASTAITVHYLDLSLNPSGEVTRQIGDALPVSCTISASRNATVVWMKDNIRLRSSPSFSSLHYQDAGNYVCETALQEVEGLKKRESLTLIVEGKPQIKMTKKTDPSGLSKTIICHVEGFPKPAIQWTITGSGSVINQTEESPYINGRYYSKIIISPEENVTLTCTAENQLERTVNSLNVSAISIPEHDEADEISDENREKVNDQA

“ILT3Fc (water-soluble recombinant protein: extracellular domain of human ILT3 affixed to the Fc portion of an immunoglobulin) (from UniProt Q8NHJ6 22-259; P01857 104-330) (Fc fusion)” was tested, and the binding [1] was “binds” and the binding (human CD166Fc (human)) was “binds”.

From patent publication US20180207269A1
